Laboratory results as given in US20210324075A1.
Results are given in words; binding and its absence hold for the method and conditions named. Some results given as binding are weak or reduced against the parent protein; the word gives no strength.

Chains of the proteins cited; added tags and fusions are not shown. Lines headed by an entry give the natural chain unless they say otherwise; changes in a name come on top. Residues count along the entry.
UniProt Q9GKE8, residues 19-303: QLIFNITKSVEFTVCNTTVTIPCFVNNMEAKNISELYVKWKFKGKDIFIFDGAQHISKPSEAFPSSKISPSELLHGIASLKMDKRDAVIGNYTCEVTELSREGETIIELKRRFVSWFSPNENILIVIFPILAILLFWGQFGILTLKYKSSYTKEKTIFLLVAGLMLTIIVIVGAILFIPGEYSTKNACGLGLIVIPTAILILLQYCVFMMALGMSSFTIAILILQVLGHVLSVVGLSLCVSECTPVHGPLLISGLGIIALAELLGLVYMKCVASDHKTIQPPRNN
UniProt Q08722: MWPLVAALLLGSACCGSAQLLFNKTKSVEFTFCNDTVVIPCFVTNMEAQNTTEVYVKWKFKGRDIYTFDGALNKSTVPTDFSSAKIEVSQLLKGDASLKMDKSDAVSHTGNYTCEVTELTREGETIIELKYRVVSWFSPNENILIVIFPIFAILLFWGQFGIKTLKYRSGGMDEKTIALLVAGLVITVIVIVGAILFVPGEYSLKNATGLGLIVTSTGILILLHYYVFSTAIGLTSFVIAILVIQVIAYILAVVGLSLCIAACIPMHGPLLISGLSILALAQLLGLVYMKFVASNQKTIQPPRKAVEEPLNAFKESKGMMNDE
UniProt Q61735, residues 19-303: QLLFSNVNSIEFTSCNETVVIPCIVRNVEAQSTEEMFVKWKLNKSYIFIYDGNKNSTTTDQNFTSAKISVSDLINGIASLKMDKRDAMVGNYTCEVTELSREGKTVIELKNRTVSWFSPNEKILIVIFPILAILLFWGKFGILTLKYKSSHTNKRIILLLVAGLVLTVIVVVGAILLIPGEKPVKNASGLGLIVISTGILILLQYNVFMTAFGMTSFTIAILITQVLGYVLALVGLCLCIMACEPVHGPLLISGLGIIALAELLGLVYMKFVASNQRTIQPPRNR

T1: rat CD47 (rat) (UniProt P97829)
T1 sequence (looked up): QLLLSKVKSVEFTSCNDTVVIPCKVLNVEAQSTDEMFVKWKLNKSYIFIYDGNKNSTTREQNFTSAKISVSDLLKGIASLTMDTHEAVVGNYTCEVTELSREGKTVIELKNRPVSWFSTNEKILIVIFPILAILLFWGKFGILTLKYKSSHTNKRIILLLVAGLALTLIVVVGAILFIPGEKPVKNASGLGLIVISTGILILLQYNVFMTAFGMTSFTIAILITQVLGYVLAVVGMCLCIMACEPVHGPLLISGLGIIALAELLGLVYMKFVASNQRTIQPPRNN


Tests used:
[1] = target: pig CD47 (pig) (UniProt Q9GKE8); experiment: flow cytometry on pig RBCs
[2] = target: human CD47 (human) (UniProt Q08722); experiment: flow cytometry on human RBCs
[3] = target: T1, rat CD47 (rat); experiment: flow cytometry on rat RBCs
[4] = target: mouse CD47 (mouse) (UniProt Q61735); experiment: flow cytometry on mouse RBCs

| binding [1] | binding [2] | binding [3] | binding [4] | Binder |
| --- | --- | --- | --- | --- |
| binds | binds | – | – | Vx13 (antibody, V domains shown) VH: EVQLQQSGPEVVKPGASVRISCKASDYTFTNYYIHWVRQRPGQGLEWIGWIYPGNNNNKYNEKFKGKATLTEDTSSSTAYMQLSSLTSEDSAVYFCARGGYTMDYWGQG VL: DVLMTQTPLSLPVSLGDQASISCRSSQSLVHSNGNTYLHWYLQKPGQSPNLLIYKVSNRFSGVPDRFSGSGSGTDFTLKINRVETEDLGIYFCSQSTHVLTFGAG |
| – | binds | binds | binds | Vx11 (antibody, V domains shown) VH: EVQLQQSGAQLVKPGTSMKLSCKASGYTFTNYFLYWVKQRPGQGLEWIGDINPNAGSTNLNERFKSKATLTVDKSSSTAYLQLSGLTSEDSAVYYCTRGGYTMDYWGQGTSVTVSS VL: DVVMTQTPLSLPVSLGDQASISCRSSQSLENSNGDTYLNWYLQKPGQSPQLLIYRVSNRFSGVLDRFSGSGSGTDFTLQISRVEAEDLGVYFCLQVSHVPWTFGGGTNLEIK |
